Measurements published in PubChem BioAssay AID1439 (NMMLSC, 2008).
The whole screen tested about 220,000 compounds, of which about 770 (0.35%) were called active. This list was built around the results that the source calls inconclusive (neither active nor inactive); the mix of calls is not that of the screen. No stated cut-off is given here; in the data, active means binding response below about 49% or above about 150%; inconclusive means no clear call, values can overlap the other calls; inactive means in between.

By UniProt entry, the sequences of proteins in these tests, tags left out.
UniProt P09471, whole entry, looked up: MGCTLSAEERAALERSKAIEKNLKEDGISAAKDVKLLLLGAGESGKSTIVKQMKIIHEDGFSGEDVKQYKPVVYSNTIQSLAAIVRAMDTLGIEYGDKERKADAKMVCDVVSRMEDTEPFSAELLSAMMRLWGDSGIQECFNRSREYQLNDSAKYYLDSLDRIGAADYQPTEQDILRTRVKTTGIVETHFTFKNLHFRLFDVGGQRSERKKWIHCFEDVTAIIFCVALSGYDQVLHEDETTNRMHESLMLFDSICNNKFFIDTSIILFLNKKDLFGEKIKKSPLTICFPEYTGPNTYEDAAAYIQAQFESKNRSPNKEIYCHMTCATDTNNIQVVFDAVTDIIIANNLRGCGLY

These molecules were tested against Guanine nucleotide-binding protein G(o) subunit alpha (Homo sapiens) (UniProt P09471) (assay: RGS7-Galphao binding modulators, primary screen, biochemical, multiplexed bead flow cytometry (AID 1439;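 further: fluorescent Galphao held in activated GDP-AlF4 state binding bead-coupled RGS7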)). Conditions: at 10 µM, actives lie on both sides.
For Cn1/c(=N/NC(=O)c2ccccc2Br)sc2ccccc21, the binding response (% of control) was inconclusive: 122%. With CCc1ccc2nc(NC(=O)c3ccc(N4C(=O)CCC4=O)cc3)sc2c1 the binding response (% of control) was inconclusive: 158%. For O=C(N/N=C/c1ccncc1)c1cccc(S(=O)(=O)Nc2ccc(Cl)cc2)c1, the binding response (% of control) was inconclusive: 119%. O=c1[nH]c(CN2CCN(S(=O)(=O)/C=C/c3ccccc3)CC2)nc2cc(Cl)ccc12 was tested, and the binding response (% of control) was inconclusive: 107%. In the case of COc1cc(NC(=O)c2n[nH]c(=O)c3ccccc23)cc(OC)c1, the binding response (% of control) was inconclusive: 100%. For COCC(C)NS(=O)(=O)c1ccc(NC(=O)c2ccccn2)cc1 (configuration not stated), the binding response (% of control) was inconclusive: 106%. With O=c1c(Cc2ccccc2)c(O)ccn1CCc1cnc[nH]1 the binding response (% of control) was inactive: 102%. Nc1nc(Sc2c([N+](=O)[O-])cc(C(F)(F)F)cc2[N+](=O)[O-])n[nH]1 was tested, and the binding response (% of control) was inconclusive: 42.4%. For COc1ccc(-c2nc(N)nc(C(F)(F)F)c2-c2cscn2)c(O)c1, the binding response (% of control) was inconclusive: 104%. For COc1cc(C(=S)N2CCCC2)cc(Cl)c1OCC(=O)Nc1ccc(C)cc1C, the binding response (% of control) was inactive: 107%. For CCOc1ccc(C(=O)Nc2ccccc2C(=O)O)cc1, the binding response (% of control) was inconclusive: 109%. For CC(=O)Cc1nsc(NC(=O)c2ccc(-c3cc(C(F)(F)F)ccc3Cl)o2)n1, the binding response (% of control) was inactive: 99.5%. O=C(NNC(=O)c1cnccn1)c1ccc(Cl)cc1 was tested, and the binding response (% of control) was inconclusive: 88.9%. With O=C(NC(=S)Nc1ccc(N2CCOCC2)c(Cl)c1)C(c1ccccc1)c1ccccc1 the binding response (% of control) was inactive: 92.1%. For Cc1ccc(-n2nccc2-c2nn(-c3cccc(C(F)(F)F)c3)c(=O)n(C)c2=O)cc1, the binding response (% of control) was inconclusive: 116%. With COc1ccc(NS(=O)(=O)c2cc(NC(=O)c3cnccn3)ccc2OC)cc1Br the binding response (% of control) was inconclusive: 102%. With CC(=O)C(C(C)=O)c1c(Cl)c(O)c(O)c2c(C(=O)c3ccccc3)coc12 the binding response (% of control) was inactive: 83.9%. In the case of O=C(OCC(=O)N1CCN(S(=O)(=O)c2ccccc2)CC1)c1ccc([N+](=O)[O-])o1, the binding response (% of control) was inconclusive: 87%. In the case of CCO[C@@H]1OC(C(=O)NC2CC2)=C[C@H](C(C)(C)C)[C@H]1CCCO, the binding response (% of control) was inconclusive: 118%. With O=C(c1ccccc1)C1C(c2ccccc2)C1[N+](=O)[O-] (configuration not stated) the binding response (% of control) was inconclusive: 104%. With CC(C)Cn1ccc(=O)n(CC(C)C)c1=O the binding response (% of control) was inactive: 103%. O=C(NNc1ccccc1C(F)(F)F)c1sccc1Br was tested, and the binding response (% of control) was inconclusive: 115%. For CCCN(CCC)c1nc(N(CCC)CCC)[nH]c(=O)n1, the binding response (% of control) was active: 5.23%. For C/C(=N\NC(=O)c1ccc(CSc2nncn2C)cc1)c1cccs1, the binding response (% of control) was inconclusive: 104%. Cc1cc2cc(C=C(C#N)C#N)c(Cl)nc2cc1C was tested, and the binding response (% of control) was inactive: 100%. For CCCCNC(=O)N(O)C1N(/N=C/c2cccs2)C(=S)SC1(C)C (configuration not stated), the binding response (% of control) was inconclusive: 142%. With CCOc1ccc(CC(=O)N2CCN=C2SCc2ccc([N+](=O)[O-])cc2)cc1 the binding response (% of control) was inconclusive: 92.5%. In the case of COc1cccc(NC(=S)N2CCc3cc(OC)c(OC)cc3C2)c1, the binding response (% of control) was inconclusive: 296%. For COc1ccc(N(CC(=O)NCc2cccs2)S(=O)(=O)c2c(C)n[nH]c2C)cc1, the binding response (% of control) was inactive: 73.9%. For COc1ccc(-c2[nH]nc3c2C(c2ccc(OC(=O)N4CCOCC4)cc2)C(C#N)=C(N)O3)cc1 (configuration not stated), the binding response (% of control) was active: 45.3%. O=C1CN(C(=O)CNCc2ccccc2)c2ccccc2N1 was tested, and the binding response (% of control) was inconclusive: 88.6%. In the case of COc1ccccc1Nc1nc(NCc2ccco2)nc(N)c1[N+](=O)[O-], the binding response (% of control) was inconclusive: 224%. With CCOC(=O)C1(Cc2cccc(OC)c2)CCCN(C(=O)c2ccccc2C)C1 (configuration not stated) the binding response (% of control) was inconclusive: 92.7%. In the case of COc1ccc(CCc2nnc(CCC(=O)N(C)Cc3ccnc4ccccc34)o2)cc1, the binding response (% of control) was inactive: 97%. With Cc1ccc(-c2noc(CN3C(C)CCCC3C)n2)cc1 (configuration not stated) the binding response (% of control) was inactive: 98.6%. CC(C)OC(=O)CSc1nnc(CNc2ccc(Cl)cc2)n1Cc1ccccc1 was tested, and the binding response (% of control) was inactive: 98.6%. With CN1CCN(C2=NC(=O)/C(=C/c3cn[nH]c3-c3ccccc3)S2)CC1 the binding response (% of control) was inconclusive: 83.2%. For CCc1ccc(-c2csc3ncn(CC(=O)NCc4ccco4)c(=O)c23)cc1, the binding response (% of control) was inconclusive: 86.6%. With CCOCCCNC(=O)C(c1ccc(C)cc1)N(Cc1cccs1)C(=O)c1ccccn1 (configuration not stated) the binding response (% of control) was inconclusive: 132%. For CCN(CC)c1ccc(/C=N/NC(=O)Cc2ccc(OC)c(OC)c2)cc1, the binding response (% of control) was inconclusive: 16.3%. NC(=O)c1cc(C(N)=O)nc(Cl)n1 was tested, and the binding response (% of control) was inconclusive: 81.9%. CS(=O)(=O)c1ccc2nc(NC(=O)C3=NN(c4ccccc4)C(=O)CC3)sc2c1 was tested, and the binding response (% of control) was inconclusive: 286%. CC(=O)c1c(C)[nH]c(C(=O)OCc2c(F)cccc2Cl)c1C was tested, and the binding response (% of control) was inactive: 102%. With CNC(=O)N/N=C(\N)c1ccccn1 the binding response (% of control) was inconclusive: 134%. For COc1ccc(N/N=C(/C(C)=O)N2CCCc3ccccc32)cc1, the binding response (% of control) was inconclusive: 106%. In the case of O=S(=O)(CCSc1ccc(C(F)(F)F)cn1)c1ccc(Cl)cc1, the binding response (% of control) was inconclusive: 77.2%. In the case of COc1ccc(-c2[nH]ncc2CN2CCC(O)(c3ccc(Cl)cc3)CC2)cc1, the binding response (% of control) was inconclusive: 111%. For Nc1c(C(=O)N/N=C/c2ccccc2)cnn1-c1ccccc1, the binding response (% of control) was inconclusive: 50.6%. O=C1CCCN2N=C(SCC(=O)N3CCCCC3)SC2=N1 was tested, and the binding response (% of control) was inconclusive: 90.3%. For CC(C)(C)NC(=O)N1CCC(CO)(Cc2ccccc2Cl)CC1, the binding response (% of control) was inconclusive: 92.5%. O=C(c1ccc2c3c(cccc13)CC2)C1CCCN(C(=O)c2ccc[n+]([O-])c2)C1 (configuration not stated) was tested, and the binding response (% of control) was inconclusive: -63.1%. In the case of CC1CCc2c(sc(NC(=O)c3nc4ncccn4n3)c2C#N)C1 (configuration not stated), the binding response (% of control) was inconclusive: 72.4%. For COc1cc(OC)c(C(=O)OCC(=O)N(Cc2ccccc2)C(C)(C)C)cc1OC, the binding response (% of control) was inconclusive: 96.4%. COCc1[nH][nH]c(=O)c1C=NCC(=O)OC was tested, and the binding response (% of control) was inconclusive: 112%. Nc1cccc2nsnc12 was tested, and the binding response (% of control) was inconclusive: 77.5%. CC(C)n1c(=S)[nH]c2scc(-c3cccs3)c2c1=O was tested, and the binding response (% of control) was inconclusive: -218%. With COC(=O)CN1CC(=O)N(c2ccccc2)C1=S the binding response (% of control) was inconclusive: 115%.
